Measured values reported in PubChem BioAssay AID1671190 (National Center for Advancing Translational Sciences (NCATS), 2021).
Hit rate of the full screen: of about 580,000 compounds, about 6,100 (1.1%) were called active. Inconclusive results, whose numbers are uncertain, are shown with a selection of clear calls. Calls come from the whole dose curve; as a rule, active = well fitted inhibition curve with a large enough effect; inconclusive = small, poorly fitted or top-dose-only effect, or another doubt; inactive = no such curve, though single readings can be large or run the other way. A potency beside an inconclusive call is a rough fit, not a confirmed value.
% is set by controls: 0 for no effect and ±100 for the full control effect; potency is the fitted concentration of half-maximal effect.

The chains behind the UniProt entries cited, without tags or fusion partners. Where a name states a change or a piece, a line headed by the entry shows the natural chain unless it says otherwise.
UniProt P18054: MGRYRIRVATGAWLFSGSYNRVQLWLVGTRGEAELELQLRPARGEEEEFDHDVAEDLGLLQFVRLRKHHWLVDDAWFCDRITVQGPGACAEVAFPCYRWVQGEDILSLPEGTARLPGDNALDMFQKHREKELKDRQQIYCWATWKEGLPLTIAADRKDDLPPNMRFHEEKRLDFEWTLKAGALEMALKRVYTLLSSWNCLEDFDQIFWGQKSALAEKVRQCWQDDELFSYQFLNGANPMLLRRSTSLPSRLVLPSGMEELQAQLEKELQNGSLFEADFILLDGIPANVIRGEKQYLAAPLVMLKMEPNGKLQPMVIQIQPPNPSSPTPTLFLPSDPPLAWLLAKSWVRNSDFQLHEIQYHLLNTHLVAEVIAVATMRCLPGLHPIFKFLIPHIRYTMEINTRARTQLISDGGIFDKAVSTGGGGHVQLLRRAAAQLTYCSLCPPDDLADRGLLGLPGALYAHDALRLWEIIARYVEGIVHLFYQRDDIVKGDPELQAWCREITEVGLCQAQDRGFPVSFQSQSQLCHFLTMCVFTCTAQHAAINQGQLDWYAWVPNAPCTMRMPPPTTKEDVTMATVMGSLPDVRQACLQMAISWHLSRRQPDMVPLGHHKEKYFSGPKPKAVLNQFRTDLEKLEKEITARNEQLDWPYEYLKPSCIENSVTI

These compounds were tested against Polyunsaturated fatty acid lipoxygenase ALOX12 (Homo sapiens) (UniProt P18054) (assay: Primary qHTS assay for inhibitors of human arachidonate 12S-lipoxygenase (ALOX12): Round 2). Conditions: purified 12hLO, xylenol orange hydroperoxide absorbance; activity change, negative = inhibition: at 108 µM (top of the series) unless noted.
Summary of the method: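 Purified human 12hLO at 150 nM in 25 mM Hepes, 0.01% Triton X-100, pH 7.0, preincubated 15 min at room temperature with compound. Reaction started with 40 uM arachidonic acid, 30 min at room temperature. Hydroperoxide measured by Fe-xylenol orange, 573/405 nm absorbance ratio.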
For O=C(C[C@H]1CC[C@@H]2[C@H](COC[C@H](O)CN2C(=O)c2cnccn2)O1)NCc1ccc(Cl)cc1, the Potency was inconclusive: 39.8 µM [inhibitor, partial curve, poor fit].
In the case of Cc1cc(C)cc(NC(=O)c2cc(S(=O)(=O)NCCC3=CCCCC3)ccc2F)c1, the Potency is reported as inconclusive: 89.1 µM [inhibitor, partial curve, poor fit].
CN1C(=O)C(C2(O)C(=O)N(Cc3ccccc3)c3cc(Cl)ccc32)c2ccccc21 (configuration not stated) was tested, and the Potency was inconclusive: 112 µM [inhibitor, partial curve, poor fit].
CCN1CCN(C(=O)c2ccc3[nH]c(C)c(C)c3c2)CC1 was tested, and the Potency was inconclusive: 3.98 µM [inhibitor, full curve, poor fit].
With Cc1ccc(C(=O)OCC(=O)NCCc2ccc(S(N)(=O)=O)cc2)o1 the Potency was “inactive”.
In the case of Cc1cccc(NC(=S)NCCC(C)C)c1, the Potency is reported as inconclusive: 44.7 µM [inhibitor, partial curve, poor fit].
With CCN(CC)CCCNC(=O)c1ccc2c(=O)n(Cc3ccc4c(c3)OCO4)c(=S)[nH]c2c1 the Potency was active: 39.8 µM.
In the case of Cc1cc(/C=C(/C#N)c2ccccn2)c(C)n1C1CC1, the Potency is reported as active: 11.2 µM.
CCN(CC)S(=O)(=O)c1ccc(NC2c3ccccc3C(=O)N2Cc2ccc3c(c2)OCO3)cc1 (configuration not stated) was tested, and the Potency was “inactive”.
COc1ccc(-c2noc3c2-c2nc(-c4ccccc4Cl)sc2CC3)cc1 was tested, and the Potency was inconclusive: 39.8 µM [inhibitor, partial curve, poor fit].
In the case of COc1ccc(NC(=O)CSc2nnc(Cc3cccs3)n2Cc2ccco2)cc1, the Potency is reported as inconclusive: 100 µM [inhibitor, single point].
For Cn1nc(C(C)(C)C)cc1NC(=O)c1ccccc1, the activity change, negative = inhibition was inconclusive: -30.3% [inhibitor].
Cc1cc(N2CCOCC2)nc2ccc(NC(=O)NCC(C)C)cc12 was tested, and the Potency was inconclusive: 141 µM [inhibitor, single point].
O=C(COC(=O)CSc1ccc([N+](=O)[O-])cc1)NCCCc1ccccc1 was tested, and the Potency was inconclusive: 39.8 µM [inhibitor, partial curve, poor fit].
CCOc1cccc2cc(C(=O)NC(C)c3ccccc3)c(=N)oc12 (configuration not stated) was tested, and the Potency was “inactive”.
For Cc1cc(C)nc(NS(=O)(=O)c2ccc(NC(=O)CN3C(=O)c4ccccc4C3=O)cc2)n1, the Potency was “inactive”.
With Cc1ccccc1-c1csc(C(O)c2ccc(F)c(F)c2)n1 (configuration not stated) the Potency was inconclusive: 44.7 µM [inhibitor, partial curve, poor fit].
With CC(CC(=O)O)CC(=O)NCCN1CCCCC1 (configuration not stated) the Potency was “inactive”.
For COc1ccc(CCNCc2c(C(=O)O)c(C)n(Cc3c(F)cccc3Cl)c2C)cc1OC, the Potency was inconclusive: 44.7 µM [inhibitor, partial curve, poor fit].
O=[N+]([O-])c1ccc(/C=N/n2c(CO)nc3ccccc32)s1 was tested, and the Potency was inconclusive: 15.8 µM [inhibitor, full curve, poor fit].
COc1ccc(C2(C)NC(=O)N(Cc3nc(-c4cccs4)oc3C)C2=O)cc1OC (configuration not stated) was tested, and the Potency was “inactive”.
For CC(C)c1ccc(CN(C(=O)c2nn(C)c(=O)c3ccccc23)C2CC2)cc1, the Potency was “inactive”.
COc1ccc(N2CCN(C(c3cccs3)C(C)NS(=O)(=O)c3ccccc3)CC2)cc1 (configuration not stated) was tested, and the Potency was inconclusive: 158 µM [inhibitor, partial curve, poor fit].
For NC(c1csc(Nc2cc(Oc3ccccc3)ncn2)n1)c1ccccc1Cl (configuration not stated), the Potency was inconclusive: 89.1 µM [inhibitor, single point].
With Cn1ccnc1SCC(=O)NC12CC3CC(CC(C3)C1)C2 the Potency was “inactive”.
In the case of O=C1CCCCC(Cc2ccccc2)(C(=O)Nc2ccc(F)cc2)N1 (configuration not stated), the Potency is reported as “inactive”.
For O=C(NCc1ccncc1)C1Cc2c(-c3ccccc3Oc3ccccc3)ccnc2O1 (configuration not stated), the Potency was inconclusive: 89.1 µM [inhibitor, single point].
For COc1ccc(C(C)=O)cc1COC(=O)Cc1ccc(Cl)cc1Cl, the Potency was “inactive”.
With N[C@@H](Cc1ccccc1)C(=O)N1CCC(C(=O)N[C@@H](Cc2c[nH]c3ccccc23)C(=O)O)CC1 the Potency was inconclusive: 39.8 µM [inhibitor, single point].
For CCOc1cccc(CN2CCN(c3cccc(C(F)(F)F)c3)CC2)c1O, the Potency was inconclusive: 25.1 µM [inhibitor, full curve].
For Cc1ccc2nc(/C(C#N)=C/c3ccc(O)c(O)c3)[nH]c2c1, the Potency was active: 7.08 µM.
Cc1ccccc1SCC(=O)NCc1ccccc1Cn1cccn1 was tested, and the Potency was “inactive”.
CCc1nc2ccc(C(=O)NCCc3ccccn3)cn2c1N(CC)CCOC was tested, and the Potency was inconclusive: 39.8 µM [inhibitor, partial curve].
In the case of O=C(Nc1c(-c2ccccc2)[nH][nH]c1=O)c1ccc(Br)cc1, the Potency is reported as inconclusive: 89.1 µM [inhibitor, partial curve, poor fit].
Cc1nc(SCC(=O)Nc2ccccc2Br)oc1C was tested, and the Potency was inconclusive: 35.5 µM [inhibitor, partial curve, poor fit].
For CCc1ccc(C(N)=S)cc1, the Potency was inconclusive: 31.6 µM [inhibitor, partial curve, poor fit].
For COc1ccc(-c2nc(C3CC3)nc3c2CCN(C(=O)c2ccc(C)cc2)CC3)cc1, the Potency was inconclusive: 100 µM [inhibitor, partial curve, poor fit].
Cc1oc(C(C)(C)C)cc1C(=O)Nc1ccc2c(c1)OCO2 was tested, and the Potency was inconclusive: 35.5 µM [inhibitor, single point].
With CCNC(=O)[C@@H]1C[C@H](n2cc(C(C)(C)NC(=O)c3ccccc3C)nn2)CN1 the Potency was inconclusive: 17.8 µM [inhibitor, single point].
Cc1cc(C)nc(-n2nc(C)cc2NC(=O)CN2CCc3ccccc3C2)n1 was tested, and the Potency was “inactive”.
For CC1CCN(S(=O)(=O)c2ccc3c(c2)oc(=O)n3CC(=O)NC(C)c2ccccc2)CC1 (configuration not stated), the Potency was inconclusive: 112 µM [inhibitor, partial curve, poor fit].
With Cc1[nH]c2ccccc2c1C(=O)C(C)Cl (configuration not stated) the Potency was inconclusive: 44.7 µM [inhibitor, partial curve, poor fit].
For O=C(O)c1cc(Sc2ccccc2C(F)(F)F)nc2ccccc12, the Potency was inconclusive: 100 µM [inhibitor, single point].
In the case of CNc1c(NC(=O)c2cc(OC)cc(OC)c2)c(=O)oc2ccccc12, the Potency is reported as “inactive”.
CCONC(=O)Cc1ccccc1C was tested, and the Potency was inconclusive: 44.7 µM [inhibitor, partial curve, poor fit].
COc1ccc(CN2CC(=O)N3[C@H]4c5ccccc5OC[C@@H]4[C@H](c4ccccc4)[C@]3(C)C2=O)cc1 was tested, and the Potency was “inactive”.
In the case of O=C(CCc1ccc(O)c(O)c1)NNC(=S)Nc1ccc(Br)cc1Cl, the Potency is reported as inconclusive: 31.6 µM [inhibitor, partial curve, poor fit].
In the case of O=C(Nc1cccc(Cl)c1)c1cc2c(=O)n3ccccc3nc2n1Cc1ccccc1, the Potency is reported as inconclusive: 56.2 µM [inhibitor, partial curve, poor fit].
In the case of O=C(Nc1cc(Cl)ccn1)C1(c2ccccc2)CC1(Cl)Cl (configuration not stated), the Potency is reported as inconclusive: 25.1 µM [inhibitor, partial curve, poor fit].
For Cc1cc(C)nc(Nc2ccccc2Cl)n1, the Potency was inconclusive: 28.2 µM [inhibitor, partial curve, poor fit].
In the case of CC1(CNC(=O)c2nccc3ccccc23)CCOCC1, the Potency is reported as “inactive”.
With COc1ccc(-n2c(=O)c3c(n2Cc2ccccc2)CN(C(=O)COc2ccccc2)CC3)cc1 the Potency was “inactive”.
For O=C1C=CC2(O[C@H](c3ccccc3)[C@@H](c3ccccc3)O2)[C@H](Sc2ccccc2O)C1, the Potency was inconclusive: 39.8 µM [inhibitor, partial curve, poor fit].
For COc1ccccc1OCC(=O)NN1Cc2ccccc2C1=N, the Potency was “inactive”.
For Nc1nc(SCC(=O)c2c(N)n(C3CC3)c(=O)[nH]c2=O)n[nH]1, the Potency was inconclusive: 44.7 µM [inhibitor, full curve, poor fit].
Cc1ccc2cc(CN(Cc3nnnn3C3CCCCC3)CC3CCCO3)c(=O)[nH]c2c1 (configuration not stated) was tested, and the Potency was inconclusive: 50.1 µM [inhibitor, partial curve, poor fit].
Cc1ccc(C(=O)OCC(=O)c2cccs2)cc1O was tested, and the Potency was “inactive”.
For O=C(CSc1nc2ccccc2c2nc(=O)c(-c3ccccc3)nn12)NCc1ccc(F)cc1, the Potency was “inactive”.
For CC(C)(C)Nc1nc(-c2ccc3c(c2)CCN3C(=O)C2CC2)cs1, the Potency was “inactive”.
With CCC(=O)c1ccc(OCC(=O)OCC(=O)N2c3ccccc3CC2C)cc1 (configuration not stated) the Potency was inconclusive: 50.1 µM [inhibitor, partial curve, poor fit].
For Cc1ccc(C(=O)CCNc2ccc(F)c(Cl)c2)o1, the Potency was inconclusive: 0.251 µM [inhibitor, full curve, poor fit].
In the case of COCCN=C1Sc2nc3c(C)cccc3cc2CN1Cc1ccco1, the Potency is reported as active: 31.6 µM.
For Cc1ccc(NC(=O)CN(C)C(=O)c2ccc(S(=O)(=O)N(C)c3ccccc3)cc2)cc1, the Potency was inconclusive: 44.7 µM [inhibitor, partial curve, poor fit].
For CC(=O)N1CCN(c2ccc(NCc3cccc(C)c3)cc2)CC1, the Potency was inconclusive: 50.1 µM [inhibitor, partial curve, poor fit].
With CCC(CC)CN1C[C@]23C=C[C@H](O2)C(C(=O)N(C)Cc2nccs2)C3C1=O (some centres not stated) the Potency was inconclusive: 100 µM [inhibitor, partial curve, poor fit].
For CCC(C)NC(=S)N1CCN(Cc2ccc3c(c2)OCO3)CC1 (configuration not stated), the Potency was inconclusive: 12.6 µM [inhibitor, full curve].
For CCCn1c(SCC(=O)Nc2nnc(C)s2)nnc1C1CC1, the Potency was inconclusive: 35.5 µM [inhibitor, full curve, poor fit].
